Data as given in PubChem BioAssay AID504784 (Drosophila RNAi Screening Center, 2011)

Assay: 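Fly genes whose silencing alters how much lipid cells keep in droplets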 (primary screen)
System: Drosophila Kc167 embryonic cells
Reagents: long dsRNA against Drosophila genes, about 250 ng dsRNA per well
Time to read-out: 4 days
Treatment: cells fed 400 µM oleic acid bound to BSA
Read-out: 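Microscope images give a droplet-to-nucleus area ratio, taken as log and converted to a screen-wide B-score; higher values mean greater lipid storage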
Reading the numbers: droplet/nuclear area B-score: higher = more stored lipid (overstorage)
In all, the deposit lists about 17,000 reagents; this is an unselected part of those that have a named target and a result. 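Each column is one replicate's B-score; the combined score over replicates was not deposited, so single values may mislead.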 Names joined by + are all predicted targets of the reagent.

no.	gene	dsRNA	droplet/nuclear area B-score, replicate 1	droplet/nuclear area B-score, replicate 2	droplet/nuclear area B-score, replicate 3
1	CG15366 (retired record)	DRSC18039	0.132	-1.59	
2	CG2321	DRSC15439	-0.0377	4.55	
3	Pal1 + Pdrg1	DRSC06587	0.518	-0.816	
4	CG10750	DRSC02105	0.398	-0.304	
5	danr (distal antenna-related)	DRSC14651	1.65	-0.26	
6	CG32444	DRSC11677	1.28	0.228	1.62
7	Obp50e (Odorant-binding protein 50e)	DRSC06434	-0.317	-1.14	
8	bma (black match)	DRSC09896	-0.341	-1.7	
9	bma (black match)	DRSC10164	0.881	-0.924	
10	CG14868	DRSC14991	-0.8	-0.198	
11	CG13471	DRSC10015	0.792	0.054	
12	Naa80 (N(alpha)-acetyltransferase 80)	DRSC16429	0.242	-1.65	
13	mask (multiple ankyrin repeats single KH domain)	DRSC15370	0.33	0.541	
14	mask (multiple ankyrin repeats single KH domain)	DRSC16005	0.0995	-2.57	
15	mask (multiple ankyrin repeats single KH domain)	DRSC16018	1.91	0.48	
16	Cyp18a1 (Cytochrome P450 18a1)	DRSC20235	0.608	0.326	
17	CG4004	DRSC19791	1.46	0.022	0.0121
18	CG4004	DRSC19882	-0.0232	1.13	0.79
19	CG1575	DRSC18069	2.84	-0.374	-1.12
20	pzg (putzig)	DRSC11848	0.626	0.271	-0.1
21	CG9368	DRSC11067	-0.178	2.16	0.00197
22	grsm (granny smith)	DRSC14165	0.0232	0.0222	
23	grsm (granny smith)	DRSC14843	0.0707	-1.31	
24	yip2 (yippee interacting protein 2)	DRSC03640	0.174	1.11	
25	Inx2 (Innexin 2)	DRSC18783	-1.04	0.952	0.206
26	CG9386	DRSC16485	5.56	-0.121	
27	CG13018	DRSC06274	0.648	0.522	
28	CG14324	DRSC14803	0.676	-1.92	
29	Mitofilin	DRSC16742	-0.374	-1.52	
30	CG8509	DRSC20109	2.19	2.99	-0.353
31	Obp44a (Odorant-binding protein 44a)	DRSC06838	1.1	-0.812	
32	Arv1 (ACAT-related protein required for viability 1)	DRSC11491	0.172	0.753	
33	APP-BP1 (beta-Amyloid precursor protein binding protein 1)	DRSC10920	-0.0107	0.173	
34	zormin	DRSC07969	0.0534	1.53	
35	zormin	DRSC08210	0.0398	0.029	
36	zormin	DRSC08212	-2.05	-0.384	
37	zormin	DRSC08213	-1.25	-2.02	
38	zormin	DRSC08297	0.114	-0.424	
39	zormin	DRSC08571	3.4	3.64	
40	zormin	DRSC22483	-1.18	-1.28	
41	Cpr50Cb (Cuticular protein 50Cb)	DRSC06975	-1.46	0.09	
42	mirr (mirror)	DRSC11369	1.47	1.71	
43	EloC (Elongin C)	DRSC07423	-0.449	-1.81	
44	CG10919	DRSC14283	1.49	0.149	
45	S-Lap3 (Sperm-Leucylaminopeptidase 3)	DRSC10956	0.13	0.104	
46	CG11664	DRSC18650	1.22	1.19	
47	CG43775	DRSC04206	0.737	-0.633	
48	CG32846	DRSC08012	-1.16	0.0622	
49	Noa36	DRSC16761	1.4		
50	eIF3a (eukaryotic translation initiation factor 3 subunit a)	DRSC12339	6.57	5.6	
51	Fip1 (Factor interacting with poly(A) polymerase 1)	DRSC12147	-0.82	1.51	-0.625
52	CG33263	DRSC10108	-0.579	0.0549	
53	conv (convoluted)	DRSC07213	-0.0227	2.53	
54	Surf1 (Surfeit 1)	DRSC11295	0.359	1.51	
55	Surf1 (Surfeit 1)	DRSC11394	-0.162	0.839	
56	Meics (Meiotic central spindle)	DRSC11413	-0.444	-0.00233	
57	CG34324	DRSC19502	-1.75	1.74	-0.6
58	CG34324	DRSC23241	-0.211	-0.0473	
59	uzip (unzipped)	DRSC04722	1.38	-1.49	
60	sn (singed)	DRSC18834	-0.127	0.264	
61	Roc2 (Regulator of cullins 2)	DRSC07313	-0.387	-0.115	
62	shams	DRSC16590	-1.11	-0.971	
63	CG8360	DRSC03085	1.26	-0.949	-1.03
64	ms(3)76Cc (male sterile (3) 76Cc)	DRSC11071	2.31	2.38	
65	ms(3)76Cc (male sterile (3) 76Cc)	DRSC21630	0.192	0.671	
66	Ent2 (Equilibrative nucleoside transporter 2)	DRSC02124	-1.35	-1.38	
67	CG17734	DRSC15256	-0.991	0.19	0.535
68	nmd (no mitochondrial derivative)	DRSC02856	1.21	-1.19	
69	TTLL6A (Tubulin tyrosine ligase-like 6A)	DRSC06618	0.701	0.164	
70	kar (karmoisin)	DRSC14496	-0.417		
71	ac (achaete)	DRSC18734	1.92	0.767	
72	Syx17 (Syntaxin 17)	DRSC08591	-0.00339	-1.07	
73	CG13197	DRSC06322	-0.0316	1.73	
74	Cul1 (Cullin 1)	DRSC07645	1.27	1.19	
75	CG6041	DRSC18396	0.957	-1.01	
76	CG31741	DRSC02887	2.26	0.533	
77	Tak1 (TGF-beta activated kinase 1)	DRSC20390	-0.383	-1.19	
78	Tak1 (TGF-beta activated kinase 1)	DRSC20561	0.558	0.133	
79	Tak1 (TGF-beta activated kinase 1)	DRSC20562	1.39	0.127	
80	CG30350	DRSC07690	0.518	-0.286	
81	CG15115	DRSC06537	1.36	0.859	
82	CG6678	DRSC16092	0.886	-2.46	
83	Kr-h1 (Kruppel homolog 1)	DRSC00908	-2.42	-3.55	
84	Kr-h1 (Kruppel homolog 1)	DRSC03355	-1.59	-1.35	
85	CG31821	DRSC22162	-0.895	0.162	
86	CG1840	DRSC19806	0.345	-1.77	0.0851
87	kdn (knockdown)	DRSC18328	1.23	1.65	
88	sip3 (septin interacting protein 3)	DRSC15402	-1.1	3.31	
89	CG14451	DRSC11708	1.26	0.224	
90	Stt3B	DRSC16781	-1.27	0.674	
91	CG11581	DRSC19407	-1.89	1.74	
92	Cpr64Aa (Cuticular protein 64Aa)	DRSC08460	0.26	1.31	
93	lncRNA:sphinx (long non-coding RNA:sphinx)	DRSC17199	2.4	1.11	
94	CG33288	DRSC11484	-0.132	-0.723	
95	CG10418	DRSC09720	-1.85	-1.55	
96	CG7579	DRSC10885	-1.23	-0.489	
97	CG9992	DRSC20226	-0.324	-0.198	1.19
98	CG9992	DRSC21643	0.267	-0.116	
99	CG42564	DRSC12518	0.0173	0.146	
100	CG5157	DRSC10488	0.297	-0.439	
101	alka (alkaliphile)	DRSC06136	0.759	-2.11	
102	Enoph (Enolase-phosphatase)	DRSC12201	1.2	-0.308	
103	CG31688 + CG31687	DRSC02116	-1.32	6.2	
104	CG33290	DRSC11493	0.11	-0.262	
105	mRpL42 (mitochondrial ribosomal protein L42)	DRSC06235	2.37	0.538	

Reprinted from the entries so far (13 entries):
no.	gene	dsRNA	droplet/nuclear area B-score, replicate 1	droplet/nuclear area B-score, replicate 2	droplet/nuclear area B-score, replicate 3
16	Cyp18a1 (Cytochrome P450 18a1)	DRSC20235	0.608	0.326	
17	CG4004	DRSC19791	1.46	0.022	0.0121
18	CG4004	DRSC19882	-0.0232	1.13	0.79
19	CG1575	DRSC18069	2.84	-0.374	-1.12
20	pzg (putzig)	DRSC11848	0.626	0.271	-0.1
21	CG9368	DRSC11067	-0.178	2.16	0.00197
22	grsm (granny smith)	DRSC14165	0.0232	0.0222	
23	grsm (granny smith)	DRSC14843	0.0707	-1.31	
24	yip2 (yippee interacting protein 2)	DRSC03640	0.174	1.11	
25	Inx2 (Innexin 2)	DRSC18783	-1.04	0.952	0.206
26	CG9386	DRSC16485	5.56	-0.121	
27	CG13018	DRSC06274	0.648	0.522	
28	CG14324	DRSC14803	0.676	-1.92	
